Assay results from paper PMC4370648.
Results are given in words; binding and its absence hold for the method and conditions named. Some binding calls cover weakened binding; strength is not graded here. Tags and fused reporters may be left off the sequences shown.

T1: mouse Slamf8 on transfected HEK293 cells (mouse) (UniProt Q9D3G2)
T1 sequence: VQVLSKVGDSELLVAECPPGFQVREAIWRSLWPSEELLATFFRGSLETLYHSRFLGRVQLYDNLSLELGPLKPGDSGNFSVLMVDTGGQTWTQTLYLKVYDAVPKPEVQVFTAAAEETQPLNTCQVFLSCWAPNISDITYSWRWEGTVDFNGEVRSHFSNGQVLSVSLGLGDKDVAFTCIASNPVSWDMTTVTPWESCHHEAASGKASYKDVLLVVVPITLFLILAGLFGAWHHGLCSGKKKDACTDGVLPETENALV

T2: mouse Slamf1 on transfected HEK293 cells (mouse) (UniProt Q9QUM4)
T2 sequence: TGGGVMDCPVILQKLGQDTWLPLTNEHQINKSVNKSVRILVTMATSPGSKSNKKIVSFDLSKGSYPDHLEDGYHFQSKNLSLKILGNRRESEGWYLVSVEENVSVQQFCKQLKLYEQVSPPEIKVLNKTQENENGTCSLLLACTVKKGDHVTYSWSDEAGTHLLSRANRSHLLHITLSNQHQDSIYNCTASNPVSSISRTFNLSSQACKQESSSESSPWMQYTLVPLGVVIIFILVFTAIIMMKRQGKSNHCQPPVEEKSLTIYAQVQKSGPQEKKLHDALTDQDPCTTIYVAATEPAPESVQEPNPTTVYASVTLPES

B1: murine Slamf8-Fc fusion protein (Fc fusion, UniProt Q9D3G2 21-231)
chain: VQVLSKVGDSELLVAECPPGFQVREAIWRSLWPSEELLATFFRGSLETLYHSRFLGRVQLYDNLSLELGPLKPGDSGNFSVLMVDTGGQTWTQTLYLKVYDAVPKPEVQVFTAAAEETQPLNTCQVFLSCWAPNISDITYSWRWEGTVDFNGEVRSHFSNGQVLSVSLGLGDKDVAFTCIASNPVSWDMTTVTPWESCHHEAASGKASYKD
B2: murine Slamf1-Fc fusion protein (Fc fusion, UniProt Q9QUM4 25-242)
chain: TGGGVMDCPVILQKLGQDTWLPLTNEHQINKSVNKSVRILVTMATSPGSKSNKKIVSFDLSKGSYPDHLEDGYHFQSKNLSLKILGNRRESEGWYLVSVEENVSVQQFCKQLKLYEQVSPPEIKVLNKTQENENGTCSLLLACTVKKGDHVTYSWSDEAGTHLLSRANRSHLLHITLSNQHQDSIYNCTASNPVSSISRTFNLSSQACKQESSSESSP

Assays:
[1] = biological target: T1, mouse Slamf8 on transfected HEK293 cells (mouse); test: flow cytometry on cells; 10 μg Fc fusion protein incubated with 1×10^6 transfected HEK293 cells (24 h after transfection) on ice for 60 minutes; detected with biotin-conjugated goat anti-human IgG Fc and streptavidin-PE; only the binder purified
[2] = biological target: T2, mouse Slamf1 on transfected HEK293 cells (mouse); test: as above

Binder	binding [1]	binding [2]
B1	binds	no binding (tested: 10 μg per 1×10^6 cells)
B2	no binding (tested: 10 μg per 1×10^6 cells)	binds
